Results of single-concentration screens

Sequences of proteins named here, by UniProt entry; tags and fusion partners are left off. Residues count along the entry.
UniProt P9WPC5, whole entry: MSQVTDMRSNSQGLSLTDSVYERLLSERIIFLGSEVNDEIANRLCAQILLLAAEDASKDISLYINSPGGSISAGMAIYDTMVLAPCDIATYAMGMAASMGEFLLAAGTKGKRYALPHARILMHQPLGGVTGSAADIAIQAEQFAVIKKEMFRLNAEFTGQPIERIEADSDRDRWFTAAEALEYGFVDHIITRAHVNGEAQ
UniProt P9WPC3, whole entry partner: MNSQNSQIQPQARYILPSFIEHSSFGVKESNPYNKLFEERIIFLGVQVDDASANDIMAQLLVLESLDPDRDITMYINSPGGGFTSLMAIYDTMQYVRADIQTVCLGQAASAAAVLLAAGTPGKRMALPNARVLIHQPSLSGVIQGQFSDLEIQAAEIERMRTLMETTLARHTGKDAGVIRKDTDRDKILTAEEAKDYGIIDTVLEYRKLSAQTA
UniProt A4I591, 1-473: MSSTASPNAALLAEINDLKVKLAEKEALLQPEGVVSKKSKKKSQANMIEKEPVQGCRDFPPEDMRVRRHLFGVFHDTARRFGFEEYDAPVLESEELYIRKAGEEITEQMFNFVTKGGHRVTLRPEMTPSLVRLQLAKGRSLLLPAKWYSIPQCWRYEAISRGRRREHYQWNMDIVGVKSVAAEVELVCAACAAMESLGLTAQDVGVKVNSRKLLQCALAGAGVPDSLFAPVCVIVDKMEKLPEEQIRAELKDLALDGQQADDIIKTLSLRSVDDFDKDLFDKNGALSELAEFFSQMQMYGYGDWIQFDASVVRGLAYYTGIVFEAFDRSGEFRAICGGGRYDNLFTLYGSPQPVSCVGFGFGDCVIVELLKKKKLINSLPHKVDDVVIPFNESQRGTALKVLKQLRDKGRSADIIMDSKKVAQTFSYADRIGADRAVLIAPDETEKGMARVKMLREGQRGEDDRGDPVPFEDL

Measurements from “University of Dundee, Small-Polar-MMV Screening Library” (2021), ChEMBL document CHEMBL3988442.

ClpP1P2: 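ClpP1P2, Mycobacterium tuberculosis (UniProt P9WPC5 and UniProt P9WPC3). Protease assay of ClpP1P2, read by the AMC dye that it sets free. Concentration: 50 µM. Higher reads as stronger inhibition, judged from the few compounds that gave an IC50. Most other retested compounds had strongly negative values. Of about 69,000 compounds tested this way, about 10 (0.015%) reached 50% or more in at least one test.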
LiHisRS: 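Enzyme assay of histidyl-tRNA synthetase; the read-out is not stated. Target: Histidine-tRNA ligase, Leishmania infantum (UniProt A4I591). Concentration: 30 µM. Higher reads as stronger inhibition (inferred: compounds with an IC50 in retests scored well above the rest). The assay is labelled LdHisRS but filed under L. infantum. Size under these conditions: about 69,000 compounds, about 410 of them at 50% or above in at least one test.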

Results are given as percent effect. The record does not define 0% and 100%; most values in the screen are far below 50% and negative numbers occur (in some assays of this library far below -100). The compounds are a random part of those screened.

structure,ClpP1P2,LiHisRS
Cc1cc(C(=O)NCc2ccco2)nn1C,0.6396%,13.79%
Cc1nc(CCC(=O)NC2CCC2)cc(C2CCCNC2)n1 (stereo not drawn),-0.9244%,13.54%
Cn1ccnc1CN1C[C@@H]2OCCN(c3ncccn3)[C@@H]2C1,-0.8269%,5.882%
Cn1cccc1C(=O)N1CCc2ncnc(N3CCCC3)c2CC1,4.085%,15.33%
O=C(COc1ccccc1)N1CCCC1c1ccc[nH]1 (stereo not drawn),-0.2556%,2.439%
COc1c(CNCc2cccnc2N2CCN(C)CC2)c(C)nn1C,-6.296%,-3.191%
COC(=O)CCc1c(C)nc2cc(O)nn2c1C,26.08%,10.96%
Cc1cc(CNC(=O)C2CCCN2C(=O)OC(C)(C)C)no1 (stereo not drawn),-0.7174%,12.12%
CCOc1cccc(C(=O)Nc2ccncc2)c1,0.4987%,9.589%
O=C(O)CCNC(=O)C1(c2cccc(Br)c2)CCOCC1,1.496%,2.857%
N#Cc1ccc(OC2CCN(CC(=O)NCC(F)(F)F)CC2)cc1,2.155%,13.7%
Cc1cc(NCCN)nc(-c2ccccc2O)n1,12.08%,1.124%
O=C(c1cccc(F)c1F)N1CCn2c(nnc2C(F)(F)F)C1,-9.293%,16.88%
Cn1cccc1CNCc1nnc2n1CCCC2C(F)(F)F (stereo not drawn),-3.138%,12.9%
O=C(NCc1ccco1)[C@H]1CC[C@@H]2[C@@H](CCN2c2ncccn2)O1,11.13%,10.91%
CNC(=O)c1ccc(C2CN(Cc3ccc(F)cc3)CCO2)nc1 (stereo not drawn),-8.573%,12.77%
Cc1nnc(C(C)Nc2cccc(COCCc3ccccc3)c2)o1 (stereo not drawn),0.08081%,15.38%
O=C(NCc1ccccn1)[C@H]1COC[C@H]2CN(CC3CC3)C[C@H]21,7.525%,14%
CC(NC(=O)Nc1ccccc1CN1CCOCC1)c1nccs1 (stereo not drawn),-2.864%,16.39%
COc1ccc(C2CNCCN2C(=O)c2cccc3cccnc23)cc1 (stereo not drawn),-8.068%,5.674%
COc1cc(N2C[C@@H](C)[C@](O)(C3CC3)C2)nc(N)n1,-9.965%,6.557%
COCCn1nc(C(=O)N(C)Cc2ccc3ccccc3c2)ccc1=O,1.7%,15.96%
Cc1nccc(N2C[C@H](NC(=O)CNS(C)(=O)=O)[C@@H](C3CC3)C2)n1,-5.67%,0%
COc1ccc(OCCCN(C)C(=O)C2CCCN2C(N)=O)cc1 (stereo not drawn),10.8%,12.68%
Cc1ccc(N2CC3(CCN(C(=O)c4ccoc4)C3)C2)nn1,11.03%,19.81%
COc1cccc(CN2CCN(c3cccc(C(C)C)n3)CC2)c1F,-3.026%,-46.48%
COc1c(CNCCC(=O)Nc2cccc(C)n2)c(C(C)C)nn1C,17.11%,12.07%
NC(=O)C1CCN(Cn2nc(-c3ccccc3)oc2=O)CC1,5.663%,10.38%
CC(=O)N1CCC(c2[nH]ncc2S(C)(=O)=O)CC1,-11.22%,9.859%
c1coc(CN2CCn3c(COCC4CC4)nnc3C2)c1,-7.479%,28%
Cn1ccnc1CN1CC[C@@H](NS(C)(=O)=O)[C@@H]1Cc1cccnc1,5.576%,15.04%
CN1CCCCC1c1ncc2c(n1)CCN(Cc1ccc(Cl)c(F)c1)C2 (stereo not drawn),-12.65%,10%
Cc1nc(C)n(CC2CCCN(Cc3cccc(C#N)c3)C2)n1 (stereo not drawn),6.011%,19.05%
Fc1cc(Cl)cnc1N1CCCC(c2nccn2CC2CC2)C1 (stereo not drawn),-9.25%,6.557%
COc1cccc(CCCN2CCC(N(C)S(C)(=O)=O)CC2)c1,9.971%,8.065%
O=C(NCc1nc(C2CCCCC2)no1)C1CC(=O)N(C2CCCC2)C1 (stereo not drawn),0.6006%,11.48%
O[C@]12CCNC[C@H]1CN(c1ccnc3ccccc13)CC2,0.6899%,-2.041%
Cc1cc(C)c(C(=O)N(CCO)Cc2ccccc2F)c(=O)[nH]1,10.31%,23.94%
CCOCCC(=O)Nc1ccnn1-c1ccc(Cl)cc1,-5.935%,21.52%
O=C(Nc1cccnc1)NC(CCCO)c1ccccc1 (stereo not drawn),-8.022%,17.07%
CC(C)n1c2ccccc2c2c1cc(C(=O)NC1CC1)n2C(=O)N(C)C,-105.3%,19.09%
CCC[C@@H]1CN(Cc2ccccc2SC)C[C@H]1NC(C)=O,-13.2%,17.07%
NC(=O)C1CCC(NC(=O)COc2ccc(Cl)c(Cl)c2)CC1 (stereo not drawn),0.9216%,18.75%
O=C(CCCc1ccccc1)N1CCC(Nc2cccnn2)CC1,-24.84%,16.96%
CCS(=O)(=O)N1CCN(C(=O)NC(C)C)CC2(CNC(=O)C2)C1 (stereo not drawn),-8.141%,15.38%
Cc1ccc(S(=O)(=O)N(C)Cc2cnccn2)cc1N(C)C,-1.413%,11.61%
Cn1ccnc1CN1CCN(Cc2cc(C#N)ccc2F)CC1,-1.836%,3.077%
C=Cc1ccc(C(=O)N2CCCC(Nc3ccc(F)cc3)C2)cc1 (stereo not drawn),-16.89%,15.38%
CC(=O)NCc1ccc(C(=O)N2CCCc3c(F)ccc(C)c32)o1,-5.017%,13.95%
c1cc(-c2nnc([C@H]3CCN(C4CCCCC4)C3)o2)ccn1,2.427%,14.86%
CCSCCn1cc(-c2ncc[nH]2)nn1,-10.68%,28.89%
CC(c1ccc(Cl)cc1)N1CCN(CCCS(N)(=O)=O)CC1 (stereo not drawn),-10.74%,0%
Cc1nnc(NCc2ccc(Cl)cc2)o1,1.321%,7.563%

The first 4 entries again:

- Cc1cc(C(=O)NCc2ccco2)nn1C | ClpP1P2: 0.6396%; LiHisRS: 13.79%
- Cc1nc(CCC(=O)NC2CCC2)cc(C2CCCNC2)n1 (stereo not drawn) | ClpP1P2: -0.9244%; LiHisRS: 13.54%
- Cn1ccnc1CN1C[C@@H]2OCCN(c3ncccn3)[C@@H]2C1 | ClpP1P2: -0.8269%; LiHisRS: 5.882%
- Cn1cccc1C(=O)N1CCc2ncnc(N3CCCC3)c2CC1 | ClpP1P2: 4.085%; LiHisRS: 15.33%